# Assay results taken from PubChem BioAssay (NCATS).
# Amino acid sequences for entries named in this document (tags omitted). A change or cut given only in a name is not applied to a line headed by its entry.
# UniProt Q9Y253: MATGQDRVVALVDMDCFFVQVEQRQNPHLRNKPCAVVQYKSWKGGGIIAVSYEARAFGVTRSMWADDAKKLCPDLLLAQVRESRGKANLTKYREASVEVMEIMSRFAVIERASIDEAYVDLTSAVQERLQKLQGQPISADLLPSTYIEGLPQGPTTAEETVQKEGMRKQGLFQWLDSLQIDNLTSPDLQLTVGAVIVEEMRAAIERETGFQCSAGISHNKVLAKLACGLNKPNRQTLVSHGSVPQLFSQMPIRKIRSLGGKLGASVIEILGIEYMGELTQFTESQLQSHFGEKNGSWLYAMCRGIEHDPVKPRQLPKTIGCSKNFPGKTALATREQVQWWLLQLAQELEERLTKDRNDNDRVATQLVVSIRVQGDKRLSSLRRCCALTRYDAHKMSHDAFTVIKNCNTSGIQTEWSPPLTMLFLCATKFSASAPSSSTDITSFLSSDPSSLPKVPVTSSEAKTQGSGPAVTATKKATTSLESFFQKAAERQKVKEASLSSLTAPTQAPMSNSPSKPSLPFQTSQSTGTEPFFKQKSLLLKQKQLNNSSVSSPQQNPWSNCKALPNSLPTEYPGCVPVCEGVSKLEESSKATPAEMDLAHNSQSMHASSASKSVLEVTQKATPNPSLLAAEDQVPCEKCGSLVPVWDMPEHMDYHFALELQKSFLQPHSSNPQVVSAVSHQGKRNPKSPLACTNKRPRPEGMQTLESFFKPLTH
# Inconclusive means that the source gave no clear call. Such entries were picked first, then a sample of the others. For some of these results: A potency beside an inconclusive call is a rough fit, not a confirmed value. Calls of active or inactive are those of the source. Calls come from the whole dose curve; as a rule, active = well fitted curve in the direction sought with a large enough effect; inconclusive = small, poorly fitted or top-dose-only effect, or another doubt; inactive = no such curve, though single readings can be large; an effect the other way counts as inactive or inconclusive.
# Columns and labels:
# [1] = qHTS for Inhibitors of WRN Helicase: Thiazole Orange DNA Binding Counterscreen (AID 720499);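 note: drop in dye fluorescence marks compound binding to DNA; potency is the fitted concentration of half-maximal effect; nearly all actives have a fitted effect of over 60% in size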
# Procedure, shortened: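 Dye-displacement counterscreen: 50 nM DNA + 100 nM ThO, cpd added by pintool, 15 min RT, fluorescence ex 480/em 530 nm.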
# [2] = target: DNA polymerase eta (Homo sapiens) (UniProt Q9Y253); assay: qHTS for Inhibitors of Polymerase Eta: Confirmatory Assay for Cherry-picked Compounds (AID 720502); conditions: Pol eta primer extension, TAMRA/BHQ fluorescence, 10 min; note: potency is the fitted concentration of half-maximal effect
# Procedure, shortened: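 Readout: TAMRA dequenching, ex 525/em 598 nm, read at 0 and 10 min. Enzyme: 10 nM human Pol eta, preincubated with compound 15 min RT. Substrate: 50 nM final annealed primer/reporter/template duplex.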
# [3] = tested on: Zika virus NS2B-NS3 protease (linked construct); assay: Primary screen NINDS Rhodamine qHTS for Zika virus inhibitors (AID 1347160); note: potency is the fitted concentration of half-maximal effect; nearly all actives have a fitted effect of over 55% in size
# Procedure, shortened: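 Rhodamine110-peptide cleavage (1.5 µM substrate) by 25 nM linked NS2B-NS3 enzyme at pH 8.0 (Tris, Tween 20), after 15 min RT preincubation with compounds; 15-min fluorescence change normalized to controls and Hill-fitted.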
# [4] = OV-KATE Cancer Cell Toxicity qHTS against the NCATS CANVASS Library (AID 1347345); note: potency is the fitted concentration of half-maximal effect
# Procedure, shortened: (§1)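 In this cytotoxicity screen, 1000 cells per well rested 4 hours, then received compound (11 concentrations) for a 72-hour incubation; an ATP-dependent luminescent signal (CellTiter-Glo) was the endpoint.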
# [5] = HPAF-II Cancer Cell Toxicity qHTS against the NCATS CANVASS Library (AID 1347346); note: potency is the fitted concentration of half-maximal effect; nearly all actives have a fitted effect of over 55% in size
# Procedure, shortened: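 1000 HPAF-II cells/well; 4 h pre-incubation; 11-pnt compound titration; 72 h, 37 degrees C/5% CO2; CellTiter-Glo, 15 min RT; luminescence read.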
# [6] = UWB1.289 Cancer Cell Toxicity qHTS against the NCATS CANVASS Library (AID 1347347); note: potency is the fitted concentration of half-maximal effect; nearly all actives have a fitted effect of over 60% in size
# Procedure, shortened: as §1
# [7] = OV-SAHO Cancer Cell Toxicity qHTS against the NCATS CANVASS Library (AID 1347348); conditions: OV-SAHO viability, CellTiter-Glo luminescence, 72 h; series mostly up to 38.3 µM; note: potency is the fitted concentration of half-maximal effect; nearly all actives have a fitted effect of over 55% in size
# Procedure, shortened: as §1
# [8] = Panc-1005 Cancer Cell Toxicity qHTS against the NCATS CANVASS Library (AID 1347349); note: potency is the fitted concentration of half-maximal effect; nearly all actives have a fitted effect of over 60% in size
# Procedure, shortened: as §1
# [9] = U-118MG Cancer Cell Toxicity qHTS against the NCATS CANVASS Library (AID 1347351)
# Procedure, shortened: as §1
# [10] = COV-362 Cancer Cell Toxicity qHTS against the NCATS CANVASS Library (AID 1347352); note: potency is the fitted concentration of half-maximal effect
# Procedure, shortened: (§2)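 1000 cells/well, 4 h pre-incubation 37 °C/5% CO2; 11-pnt titration; 72 h; CellTiter-Glo 15 min RT, luminescence.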
# [11] = A2780 Cisplatin Sensitive Ovarian Cancer Cell Toxicity qHTS against the NCATS CANVASS Library (AID 1347353); note: potency is the fitted concentration of half-maximal effect; nearly all actives have a fitted effect of over 60% in size
# Procedure, shortened: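 750 cells/well, 4 h settle; 11-pt cpd titration; 72 h, 37 °C, 5% CO2; ATPLite 10 min RT; luminescence read.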
# [12] = UWB1.289-WTBRCA1 Cancer Cell Toxicity qHTS against the NCATS CANVASS Library (AID 1347354); note: potency is the fitted concentration of half-maximal effect
# Procedure, shortened: as §2
# [13] = KB-8-5-11 Cancer Cell Toxicity qHTS against the NCATS CANVASS Library (AID 1347364); note: potency is the fitted concentration of half-maximal effect; nearly all actives have a fitted effect of over 75% in size
# Procedure, shortened: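 CellTiter-Glo luminescence after 72 h exposure; 500 KB-8-5-11 cells/well, DMEM/10% FBS, 37C, 5% CO2; compounds in 11-pt qHTS. Follow-up confirmation included medium with 1uM tariquidar.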
# [14] = KB-3-1 Cancer Cell Toxicity qHTS against the NCATS CANVASS Library (AID 1347366); note: potency is the fitted concentration of half-maximal effect; nearly all actives have a fitted effect of over 75% in size
# Procedure, shortened: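 500 KB-3-1 cells/well; compounds pin-transferred, 11-pnt series; 72 hr, 37C/5% CO2; CellTiter-Glo, 10 min RT; luminescence read-out.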
# [15] = G06 Cancer Cell Toxicity qHTS against the NCATS CANVASS Library (AID 1347368)
# Procedure, shortened: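 ATP luminescence (CellTiterGlo) readout of cytotoxicity. Canine G06 glioma cells, 500/well, 72 hr incubation at 37C with compounds; bortezomib titration served as control.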
# [16] = MCF7 Cancer Cell Toxicity qHTS against the NCATS CANVASS Library (AID 1347369); note: potency is the fitted concentration of half-maximal effect
# Procedure, shortened: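 Luminescent ATP signal (CellTiterGlo) served as the cytotoxicity read-out after MCF7 breast cancer cells had been incubated 72 hr at 37C with natural products in an 11-point titration.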
# [17] = qHTS for Inflammasome Signaling Inhibitors: IL-1-beta AlphaLISA screen against the NCATS CANVASS Library (AID 1347379);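 note: human THP-1 cells primed with LPS then triggered with ATP; secreted IL-1B measured as AlphaLISA emission at 615 nm; potency is the fitted concentration of half-maximal effect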
# Procedure, shortened: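 THP-1, 1 hr compound pre-incubation, then LPS 250 ng/mL + ATP 1.25 mM (final); 16 hr total with compound; IL-1B AlphaLISA, ex 680/em 615 nm; 11-point qHTS, up to 57.5 uM final.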
# [18] = qHTS for Activators of p53 Stress Response Pathway screened against the NCATS CANVASS Library (AID 1347388); note: potency is the fitted concentration of half-maximal effect
# Procedure, shortened: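 p53RE-bla HCT-116 cells (4000/well) were pre-incubated for 5 h, then treated with compound (11 points) for 16 h at 37C. After 2 h with CCF4, the 460/530 nm ratio gave reporter activation; CellTiter-Glo measured viability.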
# [19] = qHTS assay for small molecule disruptors of mitochondrial membrane potential screened against the NCATS CANVASS Library (AID 1347389)
# Procedure, shortened: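 Red/green fluorescence ratio read-out: J-aggregates ex 540/em 590 nm, monomers ex 490/em 535 nm. HepG2, 1 hr compound treatment, then 30 min Mito-MPS dye at 37C. 11-pt qHTS concentration series.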
# [20] = Secretion counterscreen for inhibitors of the SERCaMP assay screened against the NCATS CANVASS Library (AID 1347390);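 note: light from luciferase secreted into medium read as a measure of general secretion; potency is the fitted concentration of half-maximal effect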
# Procedure, shortened: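 Luminescence from constitutively secreted GLuc in SH-SY5Y-GLuc STOP cells, read after coelenterazine addition, served as read-out. Compounds tested 0.001 - 77 uM for 20 h at 37C; Brefeldin A as positive control.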
# [21] = qHTS for inhibitors of ER calcium dysfunction: SERCaMP assay screened against the NCATS CANVASS Library (AID 1347393); conditions: SH-SY5Y GLuc-SERCaMP secretion, thapsigargin, luminescence; series mostly up to 76.6 µM;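 note: lower secreted reporter signal means inhibitor of ER calcium depletion; nearly all actives have a fitted effect of over 40% in size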
# Procedure, shortened: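 SH-SY5Y GLuc-SERCaMP, 1000 cells/well, 4 h attach; cpd 16 h, 37C/5% CO2; thapsigargin (added as 6x 600 nM) 4 h; coelenterazine; luminescence. Reduced reporter release = ER Ca stabilization.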
# [22] = Vero-766 cells viability qHTS against the NCATS CANVASS Library: Counterscreen for Zika virus inhibition assay (AID 1347394)
# Procedure, shortened: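 CellTiter-Glo luminescence, lower signal indicating cytotoxicity. Vero 766 cells without Zika virus, 1000 cells/well, plated overnight, then treated 72 h at 37C across an 11-point series.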
smiles,measurement,setting,value
COC1C(O)C(C)OC(OC2C(Oc3cccc4c(O)c5c(=O)oc6ccc(C)c7c(=O)oc(c34)c5c67)OC(C)C(O)C2O)C1O (configuration not stated),Potency,[1],"inconclusive: 5.41 µM [inhibitor, full curve]"
same,Potency,[2],active: 42.6 µM
same,Potency,[3],"inconclusive: 87.7 µM [inhibitor, partial curve, poor fit]"
same,Potency,[4],"inconclusive: 29.8 µM [cytotoxic, single point]"
same,Potency,[5],"inconclusive: 9.43 µM [cytotoxic, full curve]"
same,Potency,[6],"inconclusive: 29.8 µM [cytotoxic, single point]"
same,Potency,[7],"inconclusive: 21.1 µM [cytotoxic, single point]"
same,Potency,[8],active: 16.8 µM
same,Potency,[9],inactive
same,Potency,[10],"inconclusive: 29.8 µM [cytotoxic, single point]"
same,Potency,[11],active: 3.32 µM
same,Potency,[12],"inconclusive: 29.8 µM [cytotoxic, single point]"
same,Potency,[13],"inconclusive: 33.2 µM [cytotoxic, single point]"
same,Potency,[14],"inconclusive: 33.2 µM [cytotoxic, single point]"
same,Potency,[15],active: 9.35 µM
same,Potency,[16],"inconclusive: 37 µM [cytotoxic, single point]"
same,Potency,[17],active: 27.3 µM
same,Potency,[18],active: 10.5 µM
same,Potency,[19],"inconclusive: 20.9 µM [inhibitor, partial curve]"
same,Potency,[20],active: 30.5 µM
same,Potency,[21],inactive
same,Potency,[22],"inconclusive: 26.3 µM [cytotoxic, partial curve, poor fit]"

# A different layout for part of the listing above:
smiles	measurement	setting	value
COC1C(O)C(C)OC(OC2C(Oc3cccc4c(O)c5c(=O)oc6ccc(C)c7c(=O)oc(c34)c5c67)OC(C)C(O)C2O)C1O (configuration not stated)	Potency	[4]	inconclusive: 29.8 µM [cytotoxic, single point]
same	Potency	[5]	inconclusive: 9.43 µM [cytotoxic, full curve]
